Laboratory results from the supplement of paper PMC4840960.
The list shows a part of the results. Plates or batches differ in their baseline, so values are only roughly comparable.

Tested on: E18 rat cortical neuron-glia co-culture
Test: total nuclei (DAPI) / Olig2+ nuclei (ratio); higher = more depletion of OPC/OL lineage cells
Conditions: treatment time: 8 days (DIV5-DIV13)

Row | Compound | total nuclei (5 µM) | total nuclei (1 µM)
1 | CN(C)C(=O)Oc1ccc[n+](C)c1 [Pyridostigmine Bromide] | 2.9 | –
2 | CN1C(=O)CN=C(c2ccccc2)c2cc(Cl)ccc21 [Diazepam] | 3 | 2.79
3 | O=C1Nc2ccc(Cl)cc2C(c2ccccc2Cl)=NC1O (stereo not drawn) [Lorazepam] | 5.3 | 3.56
4 | CN1CC[C@]23CCCC[C@H]2[C@H]1Cc1ccc(O)cc13 [Levorphanol] | 4.1 | 5
5 | CCN(C(C)=O)c1cccc(-c2ccnc3c(C#N)cnn23)c1 [Zaleplon] | 5.3 | 4.21
6 | COc1ccc2[nH]cc(CCN)c2c1 [5-Methoxytryptamine] | 2.8 | 2.81
7 | N=C(NCc1ccc(Cl)cc1)SCCCc1c[nH]cn1 [Clobenpropit] | 4.2 | 3.5
8 | CC(O)(CS(=O)(=O)c1ccc(F)cc1)C(=O)Nc1ccc(C#N)c(C(F)(F)F)c1 (stereo not drawn) [Bicalutamide] | 7.1 | 5.25
9 | COc1cc(N)c(Cl)cc1C(=O)NC1CN2CCC1CC2 (stereo not drawn) [Zacopride] | 3.4 | 3.29
10 | CNC1=Nc2ccc(Cl)cc2C(c2ccccc2)=[N+]([O-])C1 [Chlordiazepoxide] | 2.8 | 2.65
11 | C[C@]12CCC(=O)C=C1CC[C@@H]1[C@@H]2CC[C@@]2(C)[C@H]1CC[C@]2(C)O [Methyltestosterone] | 3.8 | 3.46
12 | O=P1(N(CCCl)CCCl)NCCCO1 (stereo not drawn) [Cyclophosphamide] | 2.9 | 2.8
13 | CN1CCN(C(=O)O[C@H]2c3nccnc3C(=O)N2c2ccc(Cl)cn2)CC1 [Eszopiclone] | 2.9 | 2.53
14 | COC(=O)N1CCN(C(=O)Cc2ccc(Cl)c(Cl)c2)C(CN2CCCC2)C1 (stereo not drawn) | 2.8 | 2.71
15 | O=C(O)C(Cl)Cl [Dichloroacetic Acid] | 2.7 | 2.57
16 | CCC(C(N)=O)N1CCCC1=O (stereo not drawn) [Etiracetam] | 4.2 | 4.92
17 | Cc1nnc2n1-c1ccc(Cl)cc1C(c1ccccc1)=NC2 [Alprazolam] | 3.8 | 3.4
18 | CC(C)N(CCC(C(N)=O)(c1ccccc1)c1ccccn1)C(C)C (stereo not drawn) [Disopyramide] | 4.8 | 3.93
19 | NC(=O)C[S+]([O-])C(c1ccccc1)c1ccccc1 (stereo not drawn) [Modafinil] | 4.4 | 4.31
20 | C[C@]12C/C(=C/O)C(=O)C[C@@H]1CC[C@@H]1[C@@H]2CC[C@@]2(C)[C@H]1CC[C@]2(C)O [Oxymetholone] | 3.3 | 3.18
21 | Cc1ncc2n1-c1ccc(Cl)cc1C(c1ccccc1F)=NC2 [Midazolam] | 9.5 | 6.36
22 | CNC1CC(c2ccc(Cl)c(Cl)c2)c2ccccc21 (stereo not drawn) [Indatraline] | > 40 | 5.78
